PubChem BioAssay AID1259304 | Sanger Institute | 2017
Shown is an unselected part of 160 deposited reagents. 88 of all reagents (55%) count as active. 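Four siRNAs per gene, each called on its own in one cell line; calls are not confirmed gene-level hits.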 The numbers tell different reagents against one gene apart. No viability above 1 is reported: the scale is capped. No sequences are given here. The record does not give: the amount of reagent, the time to read-out.

Aim: 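Kinase siRNAs that act in synergy with BYL719, cetuximab or trametinib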 (secondary deconvolution rescreen of primary hits)
Cells: HT115 human colorectal cancer cells
Knock-down reagent: single siRNA against human genes
Treatment: anchor drugs BYL719 at 1 µM, cetuximab at 5 µg/ml or trametinib at 10 nM, each set against DMSO vehicle
Detection: 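Replicate-averaged viability as a fraction of non-targeting control, with a drug-siRNA synergy score from joint versus separate effects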
Scale: synergy score with BYL719: higher = stronger synthetic lethal interaction with BYL719; synergy score with cetuximab: higher = stronger synthetic lethal interaction with cetuximab; synergy score with trametinib: higher = stronger synthetic lethal interaction with trametinib; viability, siRNA with trametinib and viability, siRNA with DMSO vehicle: higher = more cells surviving
Rule for the call: 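a synergy score over 0.10 with at least one of the three anchor drugs makes an active call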
Meaning of the calls: active = synergy with at least one anchor drug; inactive = no synergy with any anchor drug

gene knocked down	reagent	synergy score with BYL719	synergy score with cetuximab	synergy score with trametinib	viability, siRNA with trametinib (fraction of control)	viability, siRNA with DMSO vehicle (fraction of control)	Call
HSPB8	1	-0.0457	0.0466	0.156	0.435	0.607	active
HSPB8	2	-0.0582	0.0398	0.101	0.874	1	active
HSPB8	3	0.0309	-0.0775	0.0854	0.751	0.859	inactive
HSPB8	4	-0.0569	0.0354	0.185	0.609	0.815	active
MAP3K8	1	0.03	0.0677	0.231	0.743	0.999	active
MAP3K8	2	0.00968	0.0506	0.0593	0.619	0.696	inactive
MAP3K8	3	-0.0617	0.0284	0.0167	0.693	0.728	inactive
MAP3K8	4	-0.0518	-0.0137	0.199	0.512	0.73	active
MAPKAPK2	1	0.0387	0.0765	0.142	0.628	0.79	active
MAPKAPK2	2	-0.0419	-0.0698	-0.0623	0.845	0.803	inactive
MAPKAPK2	3	-0.0104	-0.0509	-0.128	0.937	0.83	inactive
MAPKAPK2	4	-0.0268	0.056	0.0575	0.82	0.901	inactive
IRAK1	1	-0.0801	-0.117	0.378	0.331	0.728	active
IRAK1	2	0.00926	0.111	0.105	0.755	0.882	active
IRAK1	3	0.117	0.153	0.195	0.626	0.842	active
IRAK1	4	0.396	-0.153	-0.2	0.728	0.542	active
HUNK	1	0.0398	-0.0197	0.0526	0.626	0.696	inactive
HUNK	2	-0.00692	0.0509	0.276	0.248	0.537	active
HUNK	3	-0.0317	0.0368	0.157	0.696	0.875	active
HUNK	4	0.0425	0.0442	0.34	0.557	0.921	active
CDK6	1	0.0208	0.0821	0.271	0.649	0.944	active
CDK6	2	0.0178	0.0483	0.203	0.738	0.966	active
CDK6	3	0.122	0.0958	0.0883	0.83	0.942	active
CDK6	4	0.059	0.192	0.253	0.722	1	active
MAPK4	1	-0.0359	-0.0747	0.00483	0.902	0.931	inactive
MAPK4	2	-0.115	-0.0701	-0.00459	0.502	0.51	inactive
MAPK4	3	0.0888	-0.0344	0.133	0.745	0.901	active
MAPK4	4	0.0236	0.122	0.118	0.296	0.425	active
CAMK2N1	1	0.0113	-0.113	0.0537	0.519	0.587	inactive
CAMK2N1	2	0.764	0.0431	0.141	0.834	1	active
CAMK2N1	3	0.159	0.149	0.0912	0.715	0.827	active
CAMK2N1	4	-0.136	-0.0848	-0.113	0.723	0.626	inactive
PAK1	1	0.0593	0.0331	0.197	0.534	0.75	active
PAK1	2	-0.123	-0.0555	0.0329	0.505	0.552	inactive
PAK1	3	-0.0111	0.00827	0.137	0.484	0.637	active
PAK1	4	-0.0764	-0.0719	-0.0212	0.835	0.835	inactive
PFKFB3	1	0.13	0.0211	0.0939	0.802	0.919	active
PFKFB3	2	0.122	0.169	0.279	0.586	0.887	active
PFKFB3	3	-0.162	-0.0176	-0.0155	0.869	0.875	inactive
PFKFB3	4	-0.132	0.00632	-0.0123	0.743	0.75	inactive
PIK3CA	1	-0.111	0.0744	-0.0312	0.713	0.7	inactive
PIK3CA	2	-0.126	0.104	0.221	0.485	0.725	active
PIK3CA	3	-0.11	-0.111	0.0497	0.74	0.81	inactive
PIK3CA	4	-0.114	-0.0421	0.244	0.668	0.936	active
SYNCRIP	1	-0.00759	0.0585	0.132	0.443	0.591	active
SYNCRIP	2	-0.0278	0.00527	0.185	0.676	0.884	active
SYNCRIP	3	0.00969	0.0716	0.0941	0.407	0.514	inactive
SYNCRIP	4	-0.0634	-0.0148	-0.0131	0.711	0.716	inactive
RPS6KA4	1	-0.147	0.00109	0.0379	0.683	0.739	inactive
RPS6KA4	2	0.254	-0.0142	0.31	0.538	0.87	active
RPS6KA4	3	0.0629	0.0359	0.188	0.47	0.674	active
RPS6KA4	4	0.0223	0.124	0.236	0.519	0.775	active

Laid out differently: 9 of the entries above
PFKFB3 #1
- synergy score with BYL719: 0.13
- synergy score with cetuximab: 0.0211
- synergy score with trametinib: 0.0939
- viability, siRNA with trametinib (fraction of control): 0.802
- viability, siRNA with DMSO vehicle (fraction of control): 0.919
- Call: active

PFKFB3 #2
- synergy score with BYL719: 0.122
- synergy score with cetuximab: 0.169
- synergy score with trametinib: 0.279
- viability, siRNA with trametinib (fraction of control): 0.586
- viability, siRNA with DMSO vehicle (fraction of control): 0.887
- Call: active

PFKFB3 #3
- synergy score with BYL719: -0.162
- synergy score with cetuximab: -0.0176
- synergy score with trametinib: -0.0155
- viability, siRNA with trametinib (fraction of control): 0.869
- viability, siRNA with DMSO vehicle (fraction of control): 0.875
- Call: inactive

PFKFB3 #4
- synergy score with BYL719: -0.132
- synergy score with cetuximab: 0.00632
- synergy score with trametinib: -0.0123
- viability, siRNA with trametinib (fraction of control): 0.743
- viability, siRNA with DMSO vehicle (fraction of control): 0.75
- Call: inactive

PIK3CA #1
- synergy score with BYL719: -0.111
- synergy score with cetuximab: 0.0744
- synergy score with trametinib: -0.0312
- viability, siRNA with trametinib (fraction of control): 0.713
- viability, siRNA with DMSO vehicle (fraction of control): 0.7
- Call: inactive

PIK3CA #2
- synergy score with BYL719: -0.126
- synergy score with cetuximab: 0.104
- synergy score with trametinib: 0.221
- viability, siRNA with trametinib (fraction of control): 0.485
- viability, siRNA with DMSO vehicle (fraction of control): 0.725
- Call: active

PIK3CA #3
- synergy score with BYL719: -0.11
- synergy score with cetuximab: -0.111
- synergy score with trametinib: 0.0497
- viability, siRNA with trametinib (fraction of control): 0.74
- viability, siRNA with DMSO vehicle (fraction of control): 0.81
- Call: inactive

PIK3CA #4
- synergy score with BYL719: -0.114
- synergy score with cetuximab: -0.0421
- synergy score with trametinib: 0.244
- viability, siRNA with trametinib (fraction of control): 0.668
- viability, siRNA with DMSO vehicle (fraction of control): 0.936
- Call: active

SYNCRIP #1
- synergy score with BYL719: -0.00759
- synergy score with cetuximab: 0.0585
- synergy score with trametinib: 0.132
- viability, siRNA with trametinib (fraction of control): 0.443
- viability, siRNA with DMSO vehicle (fraction of control): 0.591
- Call: active
